Measurements: patent US20080267967A1 (TRILLIUM THERAPEUTICS, published 2008)
Results are given in words; binding and its absence hold for the method and conditions named. Some entries that bind do so weakly or less than the wild type. Tags and fused reporters may be left off the sequences shown.

How the values were obtained:
[1] = biological target: T1, CD200 receptor (CD200R) on primary mouse cells, isoform not stated (mouse) (UniProt Q9ES57); test: FACS, LPS stimulated CD200r+ splenic Mph
T1 sequence: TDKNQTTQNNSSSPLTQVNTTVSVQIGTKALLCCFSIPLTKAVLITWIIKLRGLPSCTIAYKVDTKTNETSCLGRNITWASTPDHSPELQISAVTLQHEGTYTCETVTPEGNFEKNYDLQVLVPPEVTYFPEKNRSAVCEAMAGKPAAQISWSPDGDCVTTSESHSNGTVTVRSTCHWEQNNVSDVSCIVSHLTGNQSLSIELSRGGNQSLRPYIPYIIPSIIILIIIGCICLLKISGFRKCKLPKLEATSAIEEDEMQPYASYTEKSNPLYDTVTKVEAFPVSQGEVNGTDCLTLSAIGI

[2] = biological target: T1, CD200 receptor (CD200R) on primary mouse cells, isoform not stated (mouse); test: FACS with FITC-CD200:Fc on activated T cells
[3] = biological target: T2, murine CD200R2b (murine); test: FACS, FITC-CD200Fc on COS cells transiently transfected with CD200R isoform cDNA
T2 sequence: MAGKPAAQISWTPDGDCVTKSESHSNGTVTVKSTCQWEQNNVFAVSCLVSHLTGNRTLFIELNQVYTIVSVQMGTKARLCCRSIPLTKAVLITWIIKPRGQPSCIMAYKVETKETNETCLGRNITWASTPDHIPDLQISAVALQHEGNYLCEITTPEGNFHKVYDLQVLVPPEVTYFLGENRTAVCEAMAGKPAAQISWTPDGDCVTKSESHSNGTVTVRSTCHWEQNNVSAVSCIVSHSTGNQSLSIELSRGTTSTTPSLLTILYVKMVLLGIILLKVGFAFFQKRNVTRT

[4] = biological target: T2, murine CD200R2b (murine); test: FACS, FITC-CD200Fc on control COS cells and COS cells transiently transfected with CD200R isoforms
[5] = biological target: T1, CD200 receptor (CD200R) on primary mouse cells, isoform not stated (mouse); test: FACS, ConA-activated PLN cells and LPS-stimulated splenic macrophages; no binding above control with a 5-fold excess of unlabeled CD200:Fc

Measured: binding

B1: CD200Fc immunoadhesin (extracellular domain of CD200 linked to a murine IgG2a Fc region) (Fc fusion, mouse, UniProt O54901 31-232, looked up)
chain: QVEVVTQDERKALHTTASLRCSLKTSQEPLIVTWQKKKAVSPENMVTYSKTHGVVIQPAYKDRINVTELGLWNSSITFWNTTLEDEGCYMCLFNTFGSQKVSGTACLTLYVQPIVHLHYNYFEDHLNITCSATARPAPAISWKGTGTGIENSTESHFHSNGTTSVTSILRVKDPKTQVGKEVICQVLYLGNVIDYKQSLDKG
modifications: FITC-labelled in the binding assays
notes: extracellular domain; Made in a baculovirus system in Sf insect cells; also called FITC-CD200Fc; FITC-CD200:Fc; not shown: murine IgG2a Fc region; the ch
binds: all assays above
